The exact form of at least one protein or probe is not confirmed. A weaker result is weaker than the reference pair of the same experiment. For part of these data: At least one verdict was read from the data and is not stated in words by the source.

Chains of the proteins cited; added tags and fusions are not shown. A change or cut given only in a name is not applied to a line headed by its entry. Chains listed by the source or under a name are the forms on record and can include a tag or linker.
Ku70/Ku80 heterodimer, wild type (human), one chain, as listed by the source, chain 1 of 2: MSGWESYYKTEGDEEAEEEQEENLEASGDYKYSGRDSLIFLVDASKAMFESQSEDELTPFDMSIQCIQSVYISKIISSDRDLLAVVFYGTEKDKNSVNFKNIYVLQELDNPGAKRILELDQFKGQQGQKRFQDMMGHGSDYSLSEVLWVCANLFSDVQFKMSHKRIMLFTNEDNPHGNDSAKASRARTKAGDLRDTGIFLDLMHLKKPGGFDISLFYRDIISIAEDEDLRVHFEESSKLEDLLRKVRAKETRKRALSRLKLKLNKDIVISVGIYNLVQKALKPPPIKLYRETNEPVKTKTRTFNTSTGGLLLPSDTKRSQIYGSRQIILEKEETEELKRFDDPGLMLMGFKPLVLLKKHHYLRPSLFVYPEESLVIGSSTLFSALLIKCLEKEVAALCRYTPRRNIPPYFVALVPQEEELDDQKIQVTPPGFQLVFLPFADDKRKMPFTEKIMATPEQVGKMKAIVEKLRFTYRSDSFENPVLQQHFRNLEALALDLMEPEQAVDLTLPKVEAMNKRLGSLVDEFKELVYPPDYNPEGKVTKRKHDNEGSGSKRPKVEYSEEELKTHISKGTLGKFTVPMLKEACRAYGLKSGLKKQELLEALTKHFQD
Ku70/Ku80 heterodimer, wild type (human), one chain, as listed by the source, chain 2 of 2: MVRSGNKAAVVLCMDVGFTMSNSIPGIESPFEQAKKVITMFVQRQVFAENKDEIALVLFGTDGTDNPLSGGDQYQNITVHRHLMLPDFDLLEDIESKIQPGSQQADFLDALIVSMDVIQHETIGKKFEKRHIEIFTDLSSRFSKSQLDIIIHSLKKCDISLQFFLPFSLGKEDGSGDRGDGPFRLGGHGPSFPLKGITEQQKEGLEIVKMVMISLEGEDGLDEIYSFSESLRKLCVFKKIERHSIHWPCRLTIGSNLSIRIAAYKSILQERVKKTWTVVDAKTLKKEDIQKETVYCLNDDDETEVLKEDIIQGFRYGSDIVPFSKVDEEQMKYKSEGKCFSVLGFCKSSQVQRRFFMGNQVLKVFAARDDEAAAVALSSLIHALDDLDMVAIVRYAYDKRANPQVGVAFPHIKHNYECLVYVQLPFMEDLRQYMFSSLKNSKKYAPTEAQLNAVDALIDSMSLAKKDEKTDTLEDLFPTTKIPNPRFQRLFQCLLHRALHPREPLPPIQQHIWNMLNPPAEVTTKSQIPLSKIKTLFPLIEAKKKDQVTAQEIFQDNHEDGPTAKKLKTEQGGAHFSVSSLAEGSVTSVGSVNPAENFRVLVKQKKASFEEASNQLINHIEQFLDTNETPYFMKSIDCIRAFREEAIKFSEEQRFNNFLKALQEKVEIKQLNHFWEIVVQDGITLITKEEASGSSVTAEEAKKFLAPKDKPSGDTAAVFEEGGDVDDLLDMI

As a reminder, the Kd is a measure of binding affinity in units of concentration.

For series [1], the system named is Ku70/Ku80 heterodimer, wild type (human). The experiment in a line: EMSA. The conditions noted are these: EMSA: 20 μl, 500 fmol DNA, oxidation 2 mM diamide 15 min on ice, re-reduction 5 mM DTT 15 min on ice, binding temperature not stated, recombinant protein, protein details: His6 on Ku70, label: 32P. On the technique in general: In EMSA bound probe runs differently from free probe, usually more slowly.

Series [2] concerns Ku70/80ΔC (human). Briefly: EMSA. Particulars: EMSA: 20 μl, 500 fmol DNA, oxidation 2 mM diamide 15 min on ice, re-reduction 5 mM DTT 15 min on ice, binding temperature not stated, recombinant protein, label: 32P.
Series [3] has as its system Ku70/Ku80 C493A (human). Briefly: EMSA. Particulars: oxidized, diamide (0-2 mM); EMSA: 20 μl, 500 fmol DNA; oxidation 2 mM diamide 15 min on ice, re-reduction 5 mM DTT 15 min on ice; binding temperature not stated; recombinant protein; protein details: His6 on Ku70; label: 32P.
Series [4] relates to Ku70/Ku80 heterodimer, wild type (human). Briefly: fluorescence polarization. The conditions noted are these: oxidized, 2 mM diamide, minimal binding, no Kd determinable; 50 mM Tris-HCl pH 7.8, 10 mM MgCl2, 50 mM NaCl (FP: plus 1 mM DTT, 0.5 ml); recombinant protein; protein details: His6 on Ku70. (In general: Fluorescence polarisation rises when a labelled molecule tumbles more slowly, as on binding a larger partner.)

Series [5] has as its system Ku70/80ΔC (human). Briefly: fluorescence polarization. Particulars: 50 mM Tris-HCl pH 7.8, 10 mM MgCl2, 50 mM NaCl (FP: plus 1 mM DTT, 0.5 ml), recombinant protein.
The subject of a further series is Ku70/Ku80 C493S (human). Briefly: fluorescence polarization. Particulars: 50 mM Tris-HCl pH 7.8, 10 mM MgCl2, 50 mM NaCl (FP: plus 1 mM DTT, 0.5 ml), recombinant protein, protein details: His6 on Ku70.
The subject of series [6] is Ku70/Ku80 C493A (human). Briefly: fluorescence polarization. Particulars: 50 mM Tris-HCl pH 7.8, 10 mM MgCl2, 50 mM NaCl (FP: plus 1 mM DTT, 0.5 ml), recombinant protein, protein details: His6 on Ku70.
The mark [7] stands for this setting: re-reduced: 2 mM diamide then 5 mM DTT, restored but not fully.
The mark [8] stands for this setting: oxidized, 2 mM diamide, minimal binding (data not shown).
[9] abbreviates: reduced, identical to wild type (data not shown).

“CCCCTATCCTTTCCGCGTCCTTACTTCCCC (double strand) [30-bp duplex 30A/30C (EMSA)]”: the binding result in series [1] (oxidized, diamide (0-2 mM)) was “binds more weakly”; in series [1] (setting [7]), “binds more weakly”; in the series with Ku70/80ΔC (human) [2] (oxidized, 2 mM diamide) it was “binds more weakly”; in the series on Ku70/80ΔC (human) [2] (setting [7]) it was “binds more weakly”; in the series with Ku70/Ku80 C493A (human) [3], “binds more weakly”.
As for “CCCCTATCCTTTCCGCGTCCTTACTTCCCC (double strand) [30-bp duplex 30A/30C, fluorescein (polarization)]”, the binding result is reported as “binds more weakly” in series [4]; “binds more weakly” in the series on Ku70/80ΔC (human) [5] (oxidized, 2 mM diamide, minimal binding, no Kd determinable); “binds more weakly” in the series with Ku70/Ku80 C493S (human) (setting [8]); “binds” in the series on Ku70/Ku80 C493S (human) (setting [9]); “binds more weakly” in the series on Ku70/Ku80 C493A (human) [6] (setting [8]); “binds” in the series with Ku70/Ku80 C493A (human) [6] (setting [9]). The Kd in the series on Ku70/80ΔC (human) [5] (re-reduced: 2 mM diamide then 5 mM DTT, printed as <50 though text says incomplete recovery) is below 50000 nM.

These data come from publication PMC2741464.
